Literature values as cited in patent publication US20040131704A1, “A method of organic and all natural treatment, prevention and relief of diaper dermatitis and other related skin irritations” (priority 2003, published 2004).
Some entries share one result that the patent states for a list of compounds.

Settings: topical application of Lavender oil

C=CC(C)(O)CCC=C(C)C (stereo not shown) [Linalool]
time until cleared from the blood: ≤ 90 min
